{"source": "PubChem BioAssay AID1259424 (University of Nebraska Medical Center, 2018)", "test": "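Find knockdowns that reproduce the expression shifts seen after KSR1 loss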 (primary screen)", "cell system": "human HCT116 colon cancer cells", "reagents": "siRNA pool against human genes, 50 nM", "detection": "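Six signature mRNAs by branched-DNA multiplex assay, scaled to two housekeeping genes and non-targeting median, log2; matched to mean KSR1 knockdown profile by Pearson correlation and euclidean distance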", "scale": "mean correlation with KSR1 profile: higher = expression change more like KSR1 knockdown; mean distance from KSR1 profile: higher = expression change less like KSR1 knockdown", "note": "This is an unselected part of about 14,000 deposited reagents. 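Higher correlation or smaller distance means closer resemblance to KSR1 loss; control wells, including KSR1 knockdowns, recur on many plates.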 Not all columns of the deposit are shown. Not stated in the record: the time to read-out."}
{"target":"TAF4","PubChem SID":"SID363994321","mean correlation with KSR1 profile":0.268,"mean distance from KSR1 profile":1.2}
{"target":"GCLC","PubChem SID":"SID363992756","mean correlation with KSR1 profile":-0.15,"mean distance from KSR1 profile":2.33}
{"target":"LBH","PubChem SID":"SID364003490","mean correlation with KSR1 profile":0.374,"mean distance from KSR1 profile":3.55}
{"target":"FAM107A","PubChem SID":"SID363997877","mean correlation with KSR1 profile":-0.751,"mean distance from KSR1 profile":2.11}
{"target":"CACNG7","PubChem SID":"SID364003683","mean correlation with KSR1 profile":-0.0784,"mean distance from KSR1 profile":2.63}
{"target":"RHOXF2","PubChem SID":"SID364004014","mean correlation with KSR1 profile":0.842,"mean distance from KSR1 profile":4.59}
{"target":"TBCE","PubChem SID":"SID363994327","mean correlation with KSR1 profile":0.00768,"mean distance from KSR1 profile":1.8}
{"target":"ATP2B1","PubChem SID":"SID363992905","mean correlation with KSR1 profile":-0.26,"mean distance from KSR1 profile":2.14}
{"target":"CFAP410","PubChem SID":"SID363995872","mean correlation with KSR1 profile":0.28,"mean distance from KSR1 profile":2.65}
{"target":"UACA","PubChem SID":"SID364000700","mean correlation with KSR1 profile":-0.659,"mean distance from KSR1 profile":1.57}
{"target":"PHLDA2","PubChem SID":"SID363994427","mean correlation with KSR1 profile":0.228,"mean distance from KSR1 profile":3.66}
{"target":"SLC25A36","PubChem SID":"SID364000831","mean correlation with KSR1 profile":-0.618,"mean distance from KSR1 profile":2.65}
{"target":"NEK2","PubChem SID":"SID363993670","mean correlation with KSR1 profile":0.048,"mean distance from KSR1 profile":3.61}
{"target":"IMPA2","PubChem SID":"SID363998655","mean correlation with KSR1 profile":-0.243,"mean distance from KSR1 profile":2.92}
{"target":"HEBP2","PubChem SID":"SID363998750","mean correlation with KSR1 profile":-0.116,"mean distance from KSR1 profile":1.84}
{"target":"NCBP2","PubChem SID":"SID363998004","mean correlation with KSR1 profile":0.515,"mean distance from KSR1 profile":1.58}
{"target":"OPRM1","PubChem SID":"SID363992199","mean correlation with KSR1 profile":0.942,"mean distance from KSR1 profile":2.3}
{"target":"RAD23A","PubChem SID":"SID363995991","mean correlation with KSR1 profile":0.281,"mean distance from KSR1 profile":2.44}
{"target":"RASA3","PubChem SID":"SID363998010","mean correlation with KSR1 profile":-0.459,"mean distance from KSR1 profile":2.38}
{"target":"ALDH1A2","PubChem SID":"SID363994947","mean correlation with KSR1 profile":-0.507,"mean distance from KSR1 profile":2.66}
{"target":"CACYBP","PubChem SID":"SID363998832","mean correlation with KSR1 profile":-0.237,"mean distance from KSR1 profile":2.02}
{"target":"GARNL3","PubChem SID":"SID364003881","mean correlation with KSR1 profile":0.792,"mean distance from KSR1 profile":2.44}
{"target":"FNDC3B","PubChem SID":"SID364002537","mean correlation with KSR1 profile":-0.496,"mean distance from KSR1 profile":4.43}
{"target":"BMS1","PubChem SID":"SID363999083","mean correlation with KSR1 profile":-0.226,"mean distance from KSR1 profile":2.53}
{"target":"RASAL2","PubChem SID":"SID363995793","mean correlation with KSR1 profile":0.0659,"mean distance from KSR1 profile":3.11}
{"target":"CDC20","PubChem SID":"SID363992540","mean correlation with KSR1 profile":-0.6,"mean distance from KSR1 profile":3.09}
{"target":"PDE6A","PubChem SID":"SID363991771","mean correlation with KSR1 profile":-0.692,"mean distance from KSR1 profile":1.71}
{"target":"LMO4","PubChem SID":"SID363997540","mean correlation with KSR1 profile":0.0664,"mean distance from KSR1 profile":1.96}
{"target":"PSMB4","PubChem SID":"SID363993953","mean correlation with KSR1 profile":0.249,"mean distance from KSR1 profile":5.09}
{"target":"EXOSC10","PubChem SID":"SID363993845","mean correlation with KSR1 profile":-0.151,"mean distance from KSR1 profile":2.26}
{"target":"FHL2","PubChem SID":"SID363992712","mean correlation with KSR1 profile":0.368,"mean distance from KSR1 profile":1.55}
{"target":"NSRP1","PubChem SID":"SID364003798","mean correlation with KSR1 profile":0.238,"mean distance from KSR1 profile":1.98}
{"target":"EZH1","PubChem SID":"SID363993203","mean correlation with KSR1 profile":-0.297,"mean distance from KSR1 profile":3.98}
{"target":"LRRC19","PubChem SID":"SID364002593","mean correlation with KSR1 profile":0.903,"mean distance from KSR1 profile":0.844}
{"target":"CHD7","PubChem SID":"SID364005284","mean correlation with KSR1 profile":-0.138,"mean distance from KSR1 profile":1.2}
{"target":"PTPRM","PubChem SID":"SID363994001","mean correlation with KSR1 profile":-0.14,"mean distance from KSR1 profile":2.55}

Part of the list above, set out differently:
target,PubChem SID,mean correlation with KSR1 profile,mean distance from KSR1 profile
LMO4,SID363997540,0.0664,1.96
PSMB4,SID363993953,0.249,5.09
EXOSC10,SID363993845,-0.151,2.26
